Laboratory results published in article PMC5648754, “CryoEM structure of Saccharomyces cerevisiae U1 snRNP offers insight into alternative splicing” (Nature Communications, 2017).

Chains of the proteins cited; added tags and fusions are not shown. Lines headed by an entry give the natural chain unless they say otherwise; changes in a name come on top.
UniProt P32605: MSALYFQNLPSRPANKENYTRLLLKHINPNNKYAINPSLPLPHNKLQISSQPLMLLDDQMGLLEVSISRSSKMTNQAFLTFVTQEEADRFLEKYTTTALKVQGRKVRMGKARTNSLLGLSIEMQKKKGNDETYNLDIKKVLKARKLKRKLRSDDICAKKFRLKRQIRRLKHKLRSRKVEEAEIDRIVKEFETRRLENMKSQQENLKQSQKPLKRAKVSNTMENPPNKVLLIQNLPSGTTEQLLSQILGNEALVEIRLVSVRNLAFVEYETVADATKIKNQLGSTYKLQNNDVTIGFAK
UniProt P53207: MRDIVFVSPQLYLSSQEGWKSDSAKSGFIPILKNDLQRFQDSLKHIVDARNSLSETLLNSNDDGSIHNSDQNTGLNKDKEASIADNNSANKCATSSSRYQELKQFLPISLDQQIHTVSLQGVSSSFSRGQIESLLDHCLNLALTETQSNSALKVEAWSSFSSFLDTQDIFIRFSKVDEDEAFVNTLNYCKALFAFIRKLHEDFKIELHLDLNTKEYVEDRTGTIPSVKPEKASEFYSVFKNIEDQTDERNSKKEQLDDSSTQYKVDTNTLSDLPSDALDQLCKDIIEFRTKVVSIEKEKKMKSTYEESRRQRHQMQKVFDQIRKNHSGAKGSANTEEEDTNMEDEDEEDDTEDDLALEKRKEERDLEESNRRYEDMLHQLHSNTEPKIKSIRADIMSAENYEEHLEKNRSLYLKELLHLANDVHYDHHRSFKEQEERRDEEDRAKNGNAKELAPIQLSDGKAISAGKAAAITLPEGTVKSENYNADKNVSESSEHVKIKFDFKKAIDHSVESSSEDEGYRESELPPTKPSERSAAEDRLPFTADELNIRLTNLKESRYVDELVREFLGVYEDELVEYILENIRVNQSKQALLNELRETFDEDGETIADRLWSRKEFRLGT
UniProt P39682: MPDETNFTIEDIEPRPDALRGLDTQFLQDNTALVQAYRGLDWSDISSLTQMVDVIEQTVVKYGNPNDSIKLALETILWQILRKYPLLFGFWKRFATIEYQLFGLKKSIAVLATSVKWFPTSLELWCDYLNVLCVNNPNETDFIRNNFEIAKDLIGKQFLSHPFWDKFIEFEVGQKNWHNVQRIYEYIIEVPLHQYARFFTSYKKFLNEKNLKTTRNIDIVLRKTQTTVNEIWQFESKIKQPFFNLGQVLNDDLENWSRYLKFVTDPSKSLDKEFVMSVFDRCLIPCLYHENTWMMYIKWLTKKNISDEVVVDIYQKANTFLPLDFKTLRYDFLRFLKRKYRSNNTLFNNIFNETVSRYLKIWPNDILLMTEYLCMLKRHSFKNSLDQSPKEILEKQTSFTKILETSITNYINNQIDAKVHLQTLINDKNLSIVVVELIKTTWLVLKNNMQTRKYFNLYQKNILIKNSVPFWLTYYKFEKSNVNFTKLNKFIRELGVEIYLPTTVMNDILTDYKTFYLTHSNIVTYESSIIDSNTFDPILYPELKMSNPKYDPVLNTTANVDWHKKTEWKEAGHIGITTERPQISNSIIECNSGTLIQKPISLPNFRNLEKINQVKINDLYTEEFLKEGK
UniProt P34160: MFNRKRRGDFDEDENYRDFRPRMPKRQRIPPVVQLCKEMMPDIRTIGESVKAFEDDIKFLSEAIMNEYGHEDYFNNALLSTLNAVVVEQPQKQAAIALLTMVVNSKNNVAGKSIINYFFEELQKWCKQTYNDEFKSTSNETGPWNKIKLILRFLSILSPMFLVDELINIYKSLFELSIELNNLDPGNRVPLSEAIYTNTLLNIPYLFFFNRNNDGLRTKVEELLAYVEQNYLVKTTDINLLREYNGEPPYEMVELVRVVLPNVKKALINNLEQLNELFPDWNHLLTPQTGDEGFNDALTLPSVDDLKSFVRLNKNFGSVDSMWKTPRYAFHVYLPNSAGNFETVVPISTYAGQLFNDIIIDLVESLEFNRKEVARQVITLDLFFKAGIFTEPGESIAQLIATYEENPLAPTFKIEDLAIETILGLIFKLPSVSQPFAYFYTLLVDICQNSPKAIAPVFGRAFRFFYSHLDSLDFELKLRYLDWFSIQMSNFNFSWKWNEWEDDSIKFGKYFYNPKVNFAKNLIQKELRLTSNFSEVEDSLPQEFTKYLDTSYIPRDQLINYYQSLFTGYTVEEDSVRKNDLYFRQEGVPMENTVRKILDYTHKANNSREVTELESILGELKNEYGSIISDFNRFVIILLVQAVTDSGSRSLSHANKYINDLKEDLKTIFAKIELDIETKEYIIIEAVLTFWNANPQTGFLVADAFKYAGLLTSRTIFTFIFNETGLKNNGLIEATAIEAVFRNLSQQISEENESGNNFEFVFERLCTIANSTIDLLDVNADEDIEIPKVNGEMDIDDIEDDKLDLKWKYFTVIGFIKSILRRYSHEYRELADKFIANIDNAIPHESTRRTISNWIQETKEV
UniProt Q08920: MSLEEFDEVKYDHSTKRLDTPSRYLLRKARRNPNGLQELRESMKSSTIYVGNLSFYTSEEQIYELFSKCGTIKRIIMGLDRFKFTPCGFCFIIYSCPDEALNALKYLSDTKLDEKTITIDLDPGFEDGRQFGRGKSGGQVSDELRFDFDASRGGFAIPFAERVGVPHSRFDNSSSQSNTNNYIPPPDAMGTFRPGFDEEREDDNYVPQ
UniProt Q00916: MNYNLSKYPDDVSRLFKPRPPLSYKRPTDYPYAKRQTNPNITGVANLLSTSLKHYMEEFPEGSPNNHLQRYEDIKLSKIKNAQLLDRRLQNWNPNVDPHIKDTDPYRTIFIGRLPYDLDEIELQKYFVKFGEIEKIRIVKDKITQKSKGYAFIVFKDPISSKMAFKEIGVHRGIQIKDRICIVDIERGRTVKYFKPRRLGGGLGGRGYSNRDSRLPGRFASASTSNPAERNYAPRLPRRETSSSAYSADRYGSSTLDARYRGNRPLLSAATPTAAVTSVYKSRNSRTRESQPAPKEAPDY

Target: yeast U1A (Mud1), TAP-tagged (S. cerevisiae) (UniProt P32605)
Experiment: affinity purification with mass spectrometry; U1 snRNP purified from yeast through the TAP tag on U1A (IgG Sepharose, TEV, 10-30% glycerol gradient, calmodulin resin; 150 mM NaCl); components identified by SDS-PAGE and mass spectrometry

Row | binding | Molecule
1 | binds | yeast Snu71 (from UniProt P53207 1-620)
2 | binds | yeast Prp39 (from UniProt P39682 1-629)
3 | binds | yeast NCBP1, subunit of the nuclear cap-binding protein complex (from UniProt P34160 1-861)
4 | binds | yeast NCBP2, subunit of the nuclear cap-binding protein complex (from UniProt Q08920 1-208)
5 | binds | yeast U1-70K (from UniProt Q00916 1-300)
6 | binds | yeast Snu56 (natural protein, S. cerevisiae, UniProt Q03782 1-492, looked up, Snu56 of S. cerevisiae, 492 residues; N-terminal domain 47-254 and long helix 255-303 modelled; source: endogenous, S. cerevisiae; co-purified in U1 snRNP through the TAP tag on U1A) MRPRRRGLAYHHTKPKGQLSQGHYPTTSNDGQRRKVGNSEAFQSFDIWKNLDRIRSTKKNAGQFIKGSLLILPMRTEDKQQFDECMDELHKYISKDILRCYPQKEQKDEGMLFYIVLKDFNILDSCFVLSVLLAFQKRLWMAPSEKSYFRVPKNINLTGSFYLPKNIETGRGHIITSYRREQPSSSIVEVGFNVVPDFQQFQVKACHVSKFMNELSNFFSQVEFGKCEANVINYFKREYNRTYSQISLALYELPLIGDGLFDIKSYISKTRPIIETSKAQMIKHISEMKAYNEISGLQGDQFPRQQRPLSNSPSSNSISSSQTIEAGATSYQTQPQRHAVNKPSNVLNSSNRHSGPKTFEDGRYSEGNKPGFMTQDEIKQHCIGTIKASMDAVKKKSSYQILKTYVRCPRQNYIDIVYQNLNDLRSKTNCNIVVLNLNNLHESQMWLESLNTTNYTIFAQAPHPSTIRVISIGGVGEYIVKALELILNILEH

Continued, molecule first:

Row | Molecule | binding
7 | yeast Prp40 (natural protein, S. cerevisiae, UniProt P33203 1-583, looked up, Prp40 of S. cerevisiae U1 snRNP; not modelled in the structure; source: endogenous, S. cerevisiae; co-purified in U1 snRNP through the TAP tag on U1A) MSIWKEAKDASGRIYYYNTLTKKSTWEKPKELISQEELLLRENGWKAAKTADGKVYYYNPTTRETSWTIPAFEKKVEPIAEQKHDTVSHAQVNGNRIALTAGEKQEPGRTINEEESQYANNSKLLNVRRRTKEEAEKEFITMLKENQVDSTWSFSRIISELGTRDPRYWMVDDDPLWKKEMFEKYLSNRSADQLLKEHNETSKFKEAFQKMLQNNSHIKYYTRWPTAKRLIADEPIYKHSVVNEKTKRQTFQDYIDTLIDTQKESKKKLKTQALKELREYLNGIITTSSSETFITWQQLLNHYVFDKSKRYMANRHFKVLTHEDVLNEYLKIVNTIENDLQNKLNELRLRNYTRDRIARDNFKSLLREVPIKIKANTRWSDIYPHIKSDPRFLHMLGRNGSSCLDLFLDFVDEQRMYIFAQRSIAQQTLIDQNFEWNDADSDEITKQNIEKVLENDRKFDKVDKEDISLIVDGLIKQRNEKIQQKLQNERRILEQKKHYFWLLLQRTYTKTGKPKPSTWDLASKELGESLEYKALGDEDNIRRQIFEDFKPESSAPTAESATANLTLTASKKRHLTPAVELDY | binds
8 | yeast Nam8 (natural protein, S. cerevisiae, UniProt Q00539 1-523, looked up, Nam8 of S. cerevisiae, 523 residues; inter-RRM linker 289-302 and RRM3 303-383 and C-terminal tail modelled; source: endogenous, S. cerevisiae; co-purified in U1 snRNP through the TAP tag on U1A) MSYKQTTYYPSRGNLVRNDSSPYTNTISSETNNSSTSVLSLQGASNVSLGTTGNQLYMGDLDPTWDKNTVRQIWASLGEANINVRMMWNNTLNNGSRSSMGPKNNQGYCFVDFPSSTHAANALLKNGMLIPNFPNKKLKLNWATSSYSNSNNSLNNVKSGNNCSIFVGDLAPNVTESQLFELFINRYASTSHAKIVHDQVTGMSKGYGFVKFTNSDEQQLALSEMQGVFLNGRAIKVGPTSGQQQHVSGNNDYNRSSSSLNNENVDSRFLSKGQSFLSNGNNNMGFKRNHMSQFIYPVQQQPSLNHFTDPNNTTVFIGGLSSLVTEDELRAYFQPFGTIVYVKIPVGKCCGFVQYVDRLSAEAAIAGMQGFPIANSRVRLSWGRSAKQTALLQQAMLSNSLQVQQQQPGLQQPNYGYIPSSTCEAPVLPDNNVSSTMLPGCQILNYSNPYANANGLGSNNFSFYSNNNATNTQATSLLADTSSMDLSGTGGQQVIMQGSEAVVNSTNAMLNRLEQGSNGFMFA | binds
9 | yeast U1C (natural protein, S. cerevisiae, UniProt Q05900 1-231, looked up, U1C of S. cerevisiae U1 snRNP, 231 residues; NTD residues 1-48; residues 3-47 and 48-195 modelled; also called Yhc1; source: endogenous, S. cerevisiae; co-purified in U1 snRNP through the TAP tag on U1A) MTRYYCEYCHSYLTHDTLSVRKSHLVGKNHLRITADYYRNKARDIINKHNHKRRHIGKRGRKERENSSQNETLKVTCLSNKEKRHIMHVKKMNQKELAQTSIDTLKLLYDGSPGYSKVFVDANRFDIGDLVKASKLPQRANEKSAHHSFKQTSRSRDETCESNPFPRLNNPKKLEPPKILSQWSNTIPKTSIFYSVDILQTTIKESKKRMHSDGIRKPSSANGYKRRRYGN | binds
10 | yeast Luc7 (natural protein, S. cerevisiae, UniProt Q07508 1-261, looked up, Luc7 of S. cerevisiae, 261 residues; first (pseudo) Zn-finger modelled; source: endogenous, S. cerevisiae; co-purified in U1 snRNP through the TAP tag on U1A) MSTMSTPAAEQRKLVEQLMGRDFSFRHNRYSHQKRDLGLHDPKICKSYLVGECPYDLFQGTKQSLGKCPQMHLTKHKIQYEREVKQGKTFPEFEREYLAILSRFVNECNGQISVALQNLKHTAEERMKIQQVTEELDVLDVRIGLMGQEIDSLIRADEVSMGMLQSVKLQELISKRKEVAKRVRNITENVGQSAQQKLQVCEVCGAYLSRLDTDRRLADHFLGKIHLGYVKMREDYDRLMKNNRTTNASKTATTLPGRRFV | binds
11 | yeast Prp42 (natural protein, S. cerevisiae, UniProt Q03776 1-544, looked up, Prp42 of S. cerevisiae, 544 residues; residues 2-540 modelled; source: endogenous, S. cerevisiae; co-purified in U1 snRNP through the TAP tag on U1A) MDKYTALIHDENFSTLTLNVSRYPKSLAYWEKLLNYIVKASAPICKSTEPQLLKLIRCTYSSMLNEFPYLENYYIDFALLEYKLGNVSMSHKIFQRGLQAFNQRSLLLWTSYLKFCNNVISHQKQLFKKYETAEEYVGLHFFSGEFWDLYLEQISSRCTSSKKYWNVLRKILEIPLHSFSKFYALWLQRIDDIMDLKQLSQLTSKDELLKKLKIDINYSGRKGPYLQDAKKKLKKITKEMYMVVQYQVLEIYSIFESKIYINYYTSPETLVSSDEIETWIKYLDYTITLQTDSLTHLNFQRALLPLAHYDLVWIKYSKWLINSKNDLLGAKNVLLMGLKFSLKKTEIIKLLYSVICKLNEYVLLRNLLEKIESSYSDNVENVDDFEIFWDYLQFKTFCQNSLYSSRYSDSQSNGLLNKELFDKVWKRLSCKEKKSGQEILLNNLVQFYSKDTVEFVEKNIFQKIIEFGWEYYLQNGMFWNCYCRLIYFDTSRSYLDKRQYIVRKIWPQIDKKFAQSVLPSLTEFCESYFPEEMDTLEEMFTEEP | binds

Results are given in words; binding and its absence hold for the method and conditions named. In cells and extracts the contact can be indirect. These calls come from enrichment with a bait or labelling near it, and not all partners need be listed.
